The supplement of paper PMC11732987, “Enantioselective OTUD7B fragment discovery through chemoproteomics screening and high-throughput optimisation” (Communications Chemistry, 2025)
The other results are listed elsewhere or left out. The data scatter; read single values as rough.

biological target: ATP1A1 C211 (UniProt P05023); experiment: log2 mean competition ratio of IA-DTB cysteine labelling (DMSO/compound) (log2 ratio); higher = stronger cysteine engagement by compound; details: 50 µM; treatment time: 4 h; cell line lysate: HEK293T
Method: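 IA-DTB competitive cysteine chemoproteomics in HEK293T RIPA lysate. Lysates were treated with compound 29 or 30 at 50 or 200 µM for 4 h, then IA-DTB (500 µM, 1 h), trypsin-digested, NeutrAvidin-enriched and analysed by diaPASEF. Competition ratio = intensity DMSO / intensity compound (n=4 treated, n=64 DMSO); binding: mean log2 CR ≥ 1 and p ≤ 0.05 plus QC filters. Target is the cysteine site.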

SMILES	log2 mean competition ratio
O=C(CCl)N[C@H]1CCCc2ccccc21	0.598
O=C(CCl)N[C@@H]1CCCc2ccccc21	0.415

same assay, conditions: 200 µM; treatment time: 4 h; cell line lysate: HEK293T

SMILES	log2 mean competition ratio
O=C(CCl)N[C@H]1CCCc2ccccc21	-0.0618
O=C(CCl)N[C@@H]1CCCc2ccccc21	-0.14
